# Measured values: patent US20150374767A1, “Treatment of Cancer” (priority 2013, published 2015)
# System: Virttu cell line panel
# Assay: cells
# Format: cell-based
# Details: Homo sapiens, A-431, 72 h, read-out: IC50 (DCP leakage), range
compound,measurement,value
"COc1cc2ncnc(Nc3ccc(F)c(Cl)c3)c2cc1OCCCN1CCOCC1 [Gefitinib, N-(3-chloro-4-fluoro-phenyl)-7-methoxy-6-(3-morpholin-4-ylpropoxy)quinazolin-4-amine]",IC50,4 to 30 µM
